Data taken from article PMC10023711.
These are yes or no findings as the source states them, for the method shown. Binding seen in cells or lysates may run through a third protein. Some entries that bind do so weakly or less than the wild type.

By UniProt entry, the sequences of proteins in these tests, tags left out.
UniProt P9WIA1: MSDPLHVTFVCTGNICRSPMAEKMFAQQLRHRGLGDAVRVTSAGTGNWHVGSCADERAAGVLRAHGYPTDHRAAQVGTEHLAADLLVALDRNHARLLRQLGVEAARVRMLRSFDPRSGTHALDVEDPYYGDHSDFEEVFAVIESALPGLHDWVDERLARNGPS
UniProt Q96LA8: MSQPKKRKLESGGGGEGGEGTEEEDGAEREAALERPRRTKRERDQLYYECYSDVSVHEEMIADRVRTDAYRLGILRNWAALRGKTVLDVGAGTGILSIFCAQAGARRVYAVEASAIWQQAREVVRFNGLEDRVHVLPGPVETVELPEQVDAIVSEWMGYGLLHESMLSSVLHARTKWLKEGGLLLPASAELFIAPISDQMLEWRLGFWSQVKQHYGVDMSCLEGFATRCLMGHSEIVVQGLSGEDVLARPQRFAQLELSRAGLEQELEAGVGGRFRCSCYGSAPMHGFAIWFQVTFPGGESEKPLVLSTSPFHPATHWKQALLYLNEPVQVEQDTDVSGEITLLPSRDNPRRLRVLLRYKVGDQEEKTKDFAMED

Biological target: GFP-PtpA (Mycobacterium tuberculosis) (UniProt P9WIA1)
Test: co-IP

Flag-PRMT6 (protein arginine methyltransferase 6) (from UniProt Q96LA8 1-375)
binding: binds
